Source: PubChem BioAssay AID192 (DTP/NCI, 2004)
The list does not hold the whole screen: it is rich in T/C values a quarter to a half above the control, in often repeated tests (any T/C) and in doses without a T/C. Other doses and runs of a compound stand elsewhere. T/C is the treated group as % of the vehicle group. Some entries give survivors of the animals treated and no T/C: the source files T/C as zero there, which appears to mark a toxic dose or a test without result, not a measured value. Some doses without a T/C left all or most animals alive at the check, yet need not have been tolerated: the source hardly ever lists a survival T/C far under the control, and the zero likely stands for such cases as well. Survivors were counted at the toxicity check, usually on the fifth day, unless a day is given; later deaths do not show. Schedule codes are those of the source, read here as Q, the interval in days (D) or hours (H), X, the number of doses. Some doses were run more than once; their values stand side by side, smallest first. For survival time, this PubChem deposit counts one and a half times the control or more as active, and values a quarter to a half above the control carry no call in these data; other NCI protocols may use other cut-offs. Some T/C values are followed by the survivors on the day toxicity was checked, most often the fifth; without a count, all were alive then. Additions like (4×) say how often a value occurs here.

Test system: BDF1 mice, B16 melanoma ip, median survival T/C
Assay: NCI In Vivo Anticancer Drug Screen. Data for tumor model B16 Melanoma (intraperitoneal) in B6D2F1 (BDF1) mice
Settings: T/C endpoint: median survival time, higher T/C = longer survival
How it was run: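 Mice with transplantable tumors; drug vs vehicle groups; endpoint survival or tumor size; value = T/C.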

[1] = dose: 37.5 mg/kg/injection, schedule: Q01DX009 (ip), vehicle: saline
[2] = dose: 150.0 mg/kg/injection, schedule: Q01DX009 (ip), vehicle: Klucel (hydroxypropylcellulose) (HPC)
[3] = dose: 300.0 mg/kg/injection, schedule: Q01DX009 (ip), vehicle: Klucel (hydroxypropylcellulose) (HPC)
[4] = dose: 300.0 mg/kg/injection, schedule: Q01DX009 (ip), vehicle: saline
[5] = dose: 50.0 mg/kg/injection, schedule: Q01DX009 (ip), vehicle: saline

CN(C)/N=N/c1nc[nH]c1C(N)=O
survivor count (dose: 18.75 mg/kg/injection, schedule: Q01DX009 (ip), vehicle: Klucel (hydroxypropylcellulose) (HPC)): 10 of 10
T/C (dose: 21.6 mg/kg/injection, schedule: Q01DX009 (ip), vehicle: saline with Tween-80): 125 % of control
T/C (dose: 36.0 mg/kg/injection, schedule: Q01DX009 (ip), vehicle: saline with Tween-80): 125 % of control
T/C (dose: 37.5 mg/kg/injection, schedule: Q01DX009 (ip), vehicle: Klucel (hydroxypropylcellulose) (HPC)): 93, 97 (2×), 102, 107, 108, 109, 110, 111, 113, 118, 131, 140 % of control
T/C (dose: 37.5 mg/kg/injection, schedule: Q01DX009 (ip), vehicle: saline with Tween-80, evaluated on day 45): 100, 105, 114, 115, 123 % of control
T/C (dose: 37.5 mg/kg/injection, schedule: Q01DX009 (ip), vehicle: saline with Tween-80, evaluated on day 60): 104 and 115 % of control
T/C [1]: 100, 104, 105, 106, 109, 115, 117 [5 of 6 alive], 125 % of control
survivor count [1]: 5 of 6
T/C (dose: 50.0 mg/kg/injection, schedule: Q01DX009 (ip), vehicle: distilled water + Tween-80): 133 % of control
T/C (dose: 60.0 mg/kg/injection, schedule: Q01DX009 (ip), vehicle: saline with Tween-80): 125 % of control
T/C (dose: 75.0 mg/kg/injection, schedule: Q01DX009 (ip), vehicle: Klucel (hydroxypropylcellulose) (HPC)): 95 [5 of 6 alive], 102, 105, 110, 112, 112 [5 of 6 alive], 112 [9 of 10 alive], 114, 116, 117, 118, 130, 178 % of control
T/C (dose: 75.0 mg/kg/injection, schedule: Q01DX009 (ip), vehicle: saline with Tween-80, evaluated on day 45): 102, 121, 123 (2×), 131 % of control
T/C (dose: 75.0 mg/kg/injection, schedule: Q01DX009 (ip), vehicle: saline with Tween-80, evaluated on day 60): 106, 119, 120 % of control
T/C (dose: 75.0 mg/kg/injection, schedule: Q01DX009 (ip), vehicle: saline): 97, 100, 104, 106, 107, 109 (2×), 114, 115, 128 % of control
T/C (dose: 100.0 mg/kg/injection, schedule: Q01DX009 (ip), vehicle: saline with Tween-80): 128 and 134 % of control
T/C (dose: 100.0 mg/kg/injection, schedule: Q04DX003 (ip), vehicle: saline with Tween-80, evaluated on day 5): 113 % of control
T/C (dose: 100.0 mg/kg/injection, schedule: Q04DX003 (ip), vehicle: saline with Tween-80, evaluated on day 6): 103 [8 of 9 alive], 104, 112 % of control
T/C [2]: 93, 97, 107, 109, 115, 117, 120, 120 [5 of 6 alive], 122, 125, 132 [8 of 10 alive], 137 % of control
survivor count [2]: 6 of 6
T/C (dose: 150.0 mg/kg/injection, schedule: Q01DX009 (ip), vehicle: saline with Tween-80, evaluated on day 45): 110, 121 (2×), 123, 125 % of control
T/C (dose: 150.0 mg/kg/injection, schedule: Q01DX009 (ip), vehicle: saline with Tween-80, evaluated on day 60): 117, 121, 132 % of control
T/C (dose: 150.0 mg/kg/injection, schedule: Q01DX009 (ip), vehicle: saline): 102, 107, 111, 112, 113, 119, 123, 125, 128, 135 % of control
T/C (dose: 150.0 mg/kg/injection, schedule: Q04DX005 (ip), vehicle: saline): 136 % of control
survivor count (dose: 200.0 mg/kg/injection, schedule: Q01DX009 (ip), vehicle: carboxymethylcellulose (CMC)): 5 of 6
T/C (dose: 200.0 mg/kg/injection, schedule: Q01DX009 (ip), vehicle: saline with Tween-80, evaluated on day 5): 128 % of control
T/C (dose: 200.0 mg/kg/injection, schedule: Q01DX009 (ip), vehicle: saline with Tween-80, evaluated on day 45): 125 % of control
T/C (dose: 200.0 mg/kg/injection, schedule: Q01DX009 (ip), vehicle: saline): 126 % of control
T/C (dose: 200.0 mg/kg/injection, schedule: Q01DX009 (ip), vehicle: steroid suspending solution): 134 % of control
survivor count (dose: 200.0 mg/kg/injection, schedule: Q01DX017 (ip), vehicle: saline): 10 of 10
T/C [3]: 92, 97, 102, 105, 109, 110, 118, 143 % of control
survivor count [3]: 9 of 10, 10 of 10, 6 of 6
T/C (dose: 300.0 mg/kg/injection, schedule: Q01DX009 (ip), vehicle: saline with Tween-80, evaluated on day 5): 74 % of control
T/C (dose: 300.0 mg/kg/injection, schedule: Q01DX009 (ip), vehicle: saline with Tween-80, evaluated on day 45): 97 [5 of 6 alive], 107, 112, 125, 130 % of control
T/C (dose: 300.0 mg/kg/injection, schedule: Q01DX009 (ip), vehicle: saline with Tween-80, evaluated on day 60): 102, 105, 134 % of control
T/C [4]: 91, 92, 102, 107, 109, 114, 115, 167 % of control
survivor count [4]: 5 of 6 and 6 of 6
survivor count (dose: 360.0 mg/kg/injection, schedule: Q01DX009 (ip), vehicle: DMSO): 9 of 10
survivor count (dose: 400.0 mg/kg/injection, schedule: Q01DX009 (ip), vehicle: distilled water + Tween-80): 7 of 10
survivor count (dose: 400.0 mg/kg/injection, schedule: Q01DX009 (ip), vehicle: saline): 8 of 10
survivor count (dose: 400.0 mg/kg/injection, schedule: Q01DX017 (ip), vehicle: saline): 9 of 10
T/C (dose: 400.0 mg/kg/injection, schedule: Q04DX003 (ip), vehicle: saline with Tween-80, evaluated on day 5): 105 % of control
T/C (dose: 400.0 mg/kg/injection, schedule: Q04DX003 (ip), vehicle: saline with Tween-80, evaluated on day 6): 103 [8 of 9 alive], 107 [8 of 9 alive], 112 % of control [8 of 9 alive]
survivor count (dose: 600.0 mg/kg/injection, schedule: Q01DX009 (ip), vehicle: DMSO): 2 of 10

CC(CN(C)C)CN1c2ccccc2CCc2ccccc21 (stereo not given)
survivor count (dose: 35.0 mg/kg/injection, schedule: Q01DX009 (ip), vehicle: saline): 10 of 10

COc1cc([C@@H]2c3cc4c(cc3[C@H](O)[C@H]3COC(=O)[C@@H]23)OCO4)cc(OC)c1OC
survivor count (dose: 48.0 mg/kg/injection, schedule: Q01DX009 (ip), vehicle: Klucel (hydroxypropylcellulose) (HPC)): 10 of 10
survivor count (dose: 96.0 mg/kg/injection, schedule: Q01DX009 (ip), vehicle: Klucel (hydroxypropylcellulose) (HPC)): 4 of 10

CC(C)CC(NC(=O)C(CC(C)C)NC(=O)OCc1ccccc1)C(=O)O (stereo not given)
survivor count (dose: 400.0 mg/kg/injection, schedule: Q01DX009 (ip), vehicle: saline with Tween-80): 10 of 10

c1cc[c]([Sn]([c]2ccccc2)([c]2ccccc2)[n]2cccc2)cc1
survivor count (dose: 12.5 mg/kg/injection, schedule: Q01DX009 (ip), vehicle: saline): 1 of 10
survivor count (dose: 25.0 mg/kg/injection, schedule: Q01DX009 (ip), vehicle: saline): 1 of 10
survivor count [5]: 0 of 10
survivor count (dose: 100.0 mg/kg/injection, schedule: Q01DX009 (ip), vehicle: saline): 0 of 10

O=CC(NC(=O)N(CCF)N=O)C(O)C(O)C(O)CO (stereo not given)
T/C (dose: 6.25 mg/kg/injection, schedule: Q01DX001 (ip), vehicle: saline): 125 % of control
T/C (dose: 12.5 mg/kg/injection, schedule: Q01DX001 (ip), vehicle: saline): 143 % of control

COc1cc2c(cc1OC)C(CN)C2 (stereo not given)
survivor count (dose: 200.0 mg/kg/injection, schedule: Q01DX009 (ip), vehicle: Klucel (hydroxypropylcellulose) (HPC)): 0 of 10

CCCCCCCCCCCCCCCCCCOCC(COP(=O)([O-])OCC[N+](C)(C)C)OC (stereo not given)
survivor count [5]: 10 of 10
